Reference: PubChem BioAssay AID1224830 (NIAID, 2016)
Test: 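Genes whose knock-down alters the TNF-alpha reporter response to LPS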 (primary screen). System: human THP-1 monocytic leukaemia cells, TNF dual-luciferase reporter clone, PMA-differentiated to macrophage-like cells. Reagent: siRNA pool against human genes, 50 nM. Duration: LPS for 4 h, given about 3 days after siRNA transfection. Challenge: bacterial LPS (TLR4 ligand), 10 ng/ml. Measured: 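Ratio of firefly to renilla light, scaled to the plate median and expressed as a robust z-score per replicate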. Scale: TNF reporter robust z-score: higher = stronger TNF reporter response to LPS. Rule for the call: 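Each well counts as active if its z-score is over 2.8 or under -1.5; controls are left without a call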.
This is an unselected part of about 18,000 reagents tested. Of all reagents, about 2,900 (16%) got an active call. 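Calls are made per well; low scores hint the gene aids the LPS response, high scores that it dampens it.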 A number with no mark means an inactive call. Repeated entries: four replicate wells of each siRNA pool.

no.	gene symbol	TNF reporter robust z-score
1	OR9G1	-0.17
2	OR9G1	0.5
3	OR9G1	-0.42
4	OR9G1	0.14
5	NSMCE4A	-0.75
6	NSMCE4A	0.17
7	NSMCE4A	-0.14
8	NSMCE4A	-0.09
9	DNMBP	-0.27
10	DNMBP	-0.66
11	DNMBP	-0.69
12	DNMBP	-0.06
13	SPRR2F	-1
14	SPRR2F	-1.62 (active)
15	SPRR2F	-1.37
16	SPRR2F	-0.92
17	ROBO2	-0.64
18	ROBO2	-0.92
19	ROBO2	-1.38
20	ROBO2	0
21	CREG2	0.09
22	CREG2	-1.14
23	CREG2	-1.31
24	CREG2	0.02
25	GRIN3A	-1.19
26	GRIN3A	-0.12
27	GRIN3A	-0.79
28	GRIN3A	-0.2
29	LTO1	1.05
30	LTO1	0.26
31	LTO1	-0.3
32	LTO1	-0.07
33	NOMO1	0.33
34	NOMO1	1.35
35	NOMO1	-0.75
36	NOMO1	0.17
37	ALKBH7	-0.73
38	ALKBH7	-0.43
39	ALKBH7	-0.06
40	ALKBH7	-1.74 (active)
41	LLGL1	-0.99
42	LLGL1	-1
43	LLGL1	-1.02
44	LLGL1	0.3
45	SIGLEC15	0.44
46	SIGLEC15	-0.61
47	SIGLEC15	-0.09
48	SIGLEC15	-0.79
49	PPP6R1	-0.05
50	PPP6R1	-0.21
51	PPP6R1	-0.24
52	PPP6R1	-0.47
53	TBC1D23	0.85
54	TBC1D23	0.58
55	TBC1D23	2.53
56	TBC1D23	2.96 (active)
57	AGBL5	0.99
58	AGBL5	0.37
59	AGBL5	-1.03
60	AGBL5	0.28
61	PLPPR1	-0.27
62	PLPPR1	0.54
63	PLPPR1	-0.41
64	PLPPR1	-0.81
65	DUSP16	-0.27
66	DUSP16	0.75
67	DUSP16	1.31
68	DUSP16	1.46
69	PSMD8	-1.88 (active)
70	PSMD8	-1.72 (active)
71	PSMD8	-1.98 (active)
72	PSMD8	-1.84 (active)
73	SLPI	1.64
74	SLPI	1.91
75	SLPI	0.48
76	SLPI	2.71

Active calls (from the list above):
gene symbol	TNF reporter robust z-score
SPRR2F	-1.62 (active)
ALKBH7	-1.74 (active)
TBC1D23	2.96 (active)
PSMD8	-1.88 (active)
PSMD8	-1.72 (active)
PSMD8	-1.98 (active)
PSMD8	-1.84 (active)
